From US20030207393A1, “Cbp86, a sperm specific protein” (priority 2002, published 2003)
These are yes or no findings as the source states them, for the method shown. Some results given as binding are weak or reduced against the parent protein; the word gives no strength. Where a sequence is shown, tags or fusion partners need not be part of it.

Target: recombinant CBP86 (CR-A of CBP86 with C-terminal six-histidine tag, expressed in E. coli) (human) (UniProt O75952)
Experiment: immunoblot of purified recombinant protein

B1: recombinant CBP86 (CR-A of CBP86 with C-terminal six-histidine tag, expressed in E. coli) (protein, not shown: small tags and cut ends)
chain: MISSKPRLVVPYGLKTLLEGISRAVLKTNPSNINQFAAAYFQELTMYRGNTTMDIKDLVKQFHQIKVEKWSEGTTPQKKLECLKEPGKTSVESKVPTQMEKSTDTDEDNVTRTEYSDKTTQFPSVYAVPGTEQTEAVGGLSSKPATPKTTTPPSSPPPTAVSPEFAYVPADPAQLAAQMLGKVSSIHSDQSDVLMVDVATSMPVVIKEVPSSEAAEDVMVAAPLVCSGKVLEVQVVNQTSVHVDLGSQPKENEAEPSTASSVPLQDEQEPPAYDQAPEVTLQADIEVMSTVHISSVYNDVPVTEGVVYIEQLPEQIVIPFTDQVACLKENEQSKENEQSPRVSPKSVVEKTTSGMSKKSVESVKLAQLEENAKYSSVYMEAEATALLSDTSLKGQPEVPAQLLDAEGAIKIGSEKSLHLEVEVTSIVSDNTGQEESGENSVPQEMEGRPVLSGEAAEAVHSGTSVKSSSGPFPPAPEGLTAPEIEPEGESTAE
- binding: binds
